Results from US8349320.
No constants are given. Whether binding was seen depends on the method and setting. Some entries that bind do so weakly or less than the wild type.

Protein sequences, listed by entry. Tags and fused reporters are not part of them. Residues count along the entry.
UniProt Q80WM9, residues 39-275: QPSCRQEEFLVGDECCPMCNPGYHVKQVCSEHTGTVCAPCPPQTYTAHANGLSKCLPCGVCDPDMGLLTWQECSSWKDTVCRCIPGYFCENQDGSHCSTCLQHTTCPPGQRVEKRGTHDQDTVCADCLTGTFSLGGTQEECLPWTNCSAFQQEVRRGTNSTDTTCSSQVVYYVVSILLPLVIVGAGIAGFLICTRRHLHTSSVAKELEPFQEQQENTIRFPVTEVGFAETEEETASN
UniProt Q7TSA3, residues 30-139: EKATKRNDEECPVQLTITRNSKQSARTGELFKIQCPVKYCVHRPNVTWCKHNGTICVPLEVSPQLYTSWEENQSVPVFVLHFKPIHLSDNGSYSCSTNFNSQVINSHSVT

Assays:
[1] = target: mouse HVEM expressed on cells (mouse) (UniProt Q80WM9); test: flow cytometry, 1.4 µg/ml mBTLA tetramer on 293-mHVEM cells with graded LIGHT-t66 (FIG. 3F)
[2] = target: mouse HVEM expressed on cells (mouse) (UniProt Q80WM9); test: flow cytometry, mBTLA tetramer on splenocytes of C57BL/6 and HVEM-/- mice (FIG. 2B)

## mouse BTLA tetramer (from UniProt Q7TSA3 30-139)
[1]
  binding: binds
[2]
  binding: binds
